This experiment relates to B6C3F1 mice, B16 melanoma ip, median survival T/C. Briefly: NCI In Vivo Anticancer Drug Screen. Data for tumor model B16 Melanoma (intraperitoneal) in B6C3F1 mice. As to conditions: T/C endpoint: median survival time, higher T/C = longer survival. In short, it runs like this:
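Readout: survival or tumor size in treated mice relative to vehicle controls (T/C). Model uses transplantable tumors grown in mice.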

Where [1] appears, read: dose: 24.0 mg/kg/injection, schedule: Q01DX009 (ip), vehicle: saline.
[2] abbreviates: dose: 25.0 mg/kg/injection, schedule: Q01DX009 (ip), vehicle: saline.
The mark [3] stands for this setting: dose: 50.0 mg/kg/injection, schedule: Q01DX009 (ip), vehicle: saline.
Where [4] appears, read: dose: 400.0 mg/kg/injection, schedule: Q01DX009 (ip), vehicle: saline with Tween-80.
[5] abbreviates: dose: 25.0 mg/kg/injection, schedule: Q01DX009 (ip), vehicle: saline with Tween-80.
The mark [6] stands for this setting: dose: 200.0 mg/kg/injection, schedule: Q01DX009 (ip), vehicle: saline.
Setting [7] is: dose: 0.75 mg/kg/injection, schedule: Q01DX009 (ip), vehicle: saline.
The mark [8] stands for this setting: dose: 6.0 mg/kg/injection, schedule: Q01DX009 (ip), vehicle: saline.
The mark [9] stands for this setting: dose: 200.0 mg/kg/injection, schedule: Q01DX009 (ip), vehicle: saline with Tween-80.
Setting [10] is: dose: 800.0 mg/kg/injection, schedule: Q01DX009 (ip), vehicle: saline.

The list shows only some results of the screen, not a fair sample: it is rich in T/C values a quarter to a half above the control, in often repeated tests (any T/C) and in doses without a T/C. Further doses and runs are listed elsewhere. T/C is the treated group as % of the vehicle group. Some doses have a count of surviving animals in place of a T/C: the source files T/C as zero there, which appears to mark a toxic dose or a test without result, not a measured value. Some doses without a T/C left all or most animals alive at the check, yet need not have been tolerated: the source hardly ever lists a survival T/C far under the control, and the zero likely stands for such cases as well. Counts of survivors are from the toxicity check (mostly the fifth day) where no day follows; animals may have died later. Schedule codes are those of the source, taken here to give the interval after Q, in days (D) or hours (H), and the number of doses after X. Signs of the kind (2×) count equal records among those shown. Some entries were tested several times; the values are given in rising order. Some structures stand for samples that the source files as different forms (salt, stereo form or complex); doses refer to the form tested. Where survival is the endpoint, this PubChem deposit counts one and a half times the control or more as active, and values a quarter to a half above the control carry no call in these data; other NCI protocols may use other cut-offs. Some T/C values are followed by the survivors on the day toxicity was checked, most often the fifth; without a count, all were alive then.

Regarding `O=c1n(CC2CO2)c(=O)n(CC2CO2)n1CC1CO1` (stereo not given), the T/C (dose: 1.5 mg/kg/injection, schedule: Q01DX009 (ip), vehicle: saline) was 143 % of control. Besides, the survivor count runs as follows: under setting [1], 10 of 10; under setting [2], 10 of 10; under setting [3], 8 of 10; (dose: 100.0 mg/kg/injection, schedule: Q01DX009 (ip), vehicle: saline) 0 of 10.

For the compound `O=C1C(Cl)=C(Cl)C(=O)C2=C1C1c3ccccc3C2c2ccccc21`, the survivor count under setting [4] is reported as 10 of 10.

For the compound `C=CC(=O)N1CN(C(=O)C=C)CN(C(=O)C=C)C1`, the survivor count under setting [5] was 0 of 10.

On to `COC1C(/C=C/C(C)=O)OC2OC(C)(C)OC21` (stereo not given), for which the survivor count under setting [6] was 4 of 10 and 6 of 10.

For the compound `CN1CCN(CN2C(=O)C3C4C=CC(C3C2=O)C2C3C(=O)N(CN5CCN(C)CC5)C(=O)C3C42)CC1` (stereo not given), the survivor count was 6 of 10 (dose: 124.0 mg/kg/injection, schedule: Q01DX009 (ip), vehicle: water) and 2 of 10 (dose: 166.7 mg/kg/injection, schedule: Q01DX009 (ip), vehicle: water).

As for `CCCCCCCCCCCCCCC/C([O-])=N/[N+](C)(C)CC(C)O` (stereo not given), the survivor count runs as follows: (dose: 100.0 mg/kg/injection, schedule: Q01DX001 (ip), vehicle: saline) 10 of 10; (dose: 300.0 mg/kg/injection, schedule: Q01DX001 (ip), vehicle: saline) 10 of 10; (dose: 800.0 mg/kg/injection, schedule: Q01DX001 (ip), vehicle: saline with Tween-80) 0 of 10.

Take `O=CC(O)C(O)C(O)C(O)C(=O)O.[NH-]C1CCCCC1[NH-].[Pt+2]` (stereo not given): the T/C is, setting by setting: (dose: 0.38 mg/kg/injection, schedule: Q01DX009 (ip), vehicle: saline) 138 % of control; under setting [7], 133 % of control; (dose: 1.56 mg/kg/injection, schedule: Q01DX009 (ip), vehicle: saline, evaluated on day 45) 137 % of control; (dose: 1.56 mg/kg/injection, schedule: Q01DX009 (ip), vehicle: saline, evaluated on day 60) 133 % of control. Besides, the survivor count (dose: 3.12 mg/kg/injection, schedule: Q01DX009 (ip), vehicle: saline) is reported as 10 of 10; the survivor count (dose: 3.13 mg/kg/injection, schedule: Q01DX009 (ip), vehicle: saline) is recorded as 10 of 10; the survivor count (dose: 6.25 mg/kg/injection, schedule: Q01DX009 (ip), vehicle: saline) was 10 of 10 (2×); the survivor count (dose: 12.5 mg/kg/injection, schedule: Q01DX009 (ip), vehicle: saline) was 10 of 10 (2×); the survivor count under setting [2] is 8 of 10 and 10 of 10; the survivor count under setting [3] was 0 of 10 (2×).

On to `N=C(N)c1nn(C2OC(CO)C(O)C2O)c2nc[nH]c(=O)c12` (stereo not given), for which the T/C is 140 % of control (dose: 6.25 mg/kg/injection, schedule: Q01DX009 (ip), vehicle: Klucel + Tween-80); 126 % of control (dose: 10.42 mg/kg/injection, schedule: Q01DX009 (ip), vehicle: Klucel (hydroxypropylcellulose) (HPC)); 129 % of control (dose: 12.5 mg/kg/injection, schedule: Q01DX009 (ip), vehicle: Klucel + Tween-80). Further, the survivor count is, setting by setting: (dose: 25.0 mg/kg/injection, schedule: Q01DX009 (ip), vehicle: Klucel + Tween-80) 10 of 10; (dose: 50.0 mg/kg/injection, schedule: Q01DX009 (ip), vehicle: Klucel + Tween-80) 1 of 10.

In the case of `O=C1C2=C(C(=O)c3cnccc31)C1C=CC2CC1` (stereo not given), for the setting “dose: 200.0 mg/kg/injection, schedule: Q01DX009 (ip), vehicle: DMSO”, the survivor count is listed as 7 of 10.

For `[Cl][Pt+2][Cl].[NH-]C1CCC1.[NH2-]`, the T/C under setting [7] was 127 % of control; the T/C (dose: 3.0 mg/kg/injection, schedule: Q01DX009 (ip), vehicle: saline) is 142 % of control; the T/C under setting [8] was 136 % of control. Besides, the survivor count is reported as 10 of 10 under setting [8]; 10 of 10 (dose: 12.0 mg/kg/injection, schedule: Q01DX009 (ip), vehicle: saline); 10 of 10 under setting [1].

As to `CN(C)N=Nc1cccc(C(N)=O)c1`, under setting [6], the survivor count is given as 2 of 6.

`Sc1ccccc1-n1c(-c2ccccc2)ccc1-c1ccccc1`: the survivor count is 10 of 10 under setting [9] and 10 of 10 under setting [4].

As for `CC(=O)O[C@@H]1C(=O)C=C(C)[C@@H]2[C@@H](OC(=O)C=C(C)C)[C@H]3OC(=O)C[C@H]4[C@@H](C)[C@@H](O)[C@]5(O)OC[C@]34[C@H]5[C@@]12C`, the T/C reads like this: (dose: 0.5 mg/kg/injection, schedule: Q01DX009 (ip), vehicle: distilled water + Tween-80) 127 % of control; (dose: 1.0 mg/kg/injection, schedule: Q01DX009 (ip), vehicle: distilled water + Tween-80) 137 % of control; (dose: 2.0 mg/kg/injection, schedule: Q01DX009 (ip), vehicle: distilled water + Tween-80) 145 % of control [9 of 10 alive]; (dose: 4.0 mg/kg/injection, schedule: Q01DX005 (ip), vehicle: distilled water + Tween-80) 137 % of control [9 of 10 alive].

Take `CN1CCC(c2ccccc2)(c2ccccc2)C(=O)C1`: the survivor count by setting is: under setting [9], 6 of 10; under setting [4], 0 of 10.

For `CCCCCCCCCCCCN1C(C)=CS/C1=C\C=C\c1scc(C)[n+]1CCCCCCCCCCCC`, the survivor count runs as follows: (dose: 3.12 mg/kg/injection, schedule: Q01DX009 (ip), vehicle: saline with Tween-80) 10 of 10; (dose: 6.25 mg/kg/injection, schedule: Q01DX009 (ip), vehicle: saline with Tween-80) 4 of 10 and 10 of 10; (dose: 12.0 mg/kg/injection, schedule: Q01DX009 (ip), vehicle: saline with Tween-80) 1 of 10; (dose: 12.5 mg/kg/injection, schedule: Q01DX009 (ip), vehicle: saline with Tween-80) 3 of 10; under setting [5], 0 of 10.

Turning to `COc1ccc2c(c1[N+](=O)[O-])CC[C@@H]1[C@@H]2CC[C@]2(C)C(=O)CC[C@@H]12`, the T/C under setting [9] was 125 % of control. Further, under setting [4], the survivor count was 10 of 10.

With `CN(C)CCNc1ccc(CO)c2sc3ccc(O)cc3c(=O)c12`, the survivor count (dose: 138.88 mg/kg/injection, schedule: Q01DX009 (ip), vehicle: saline with Tween-80) is 10 of 10.

`O=S1(=O)C=C(c2ccccc2)C(c2ccccc2)=C1`: the survivor count is, setting by setting: under setting [5], 9 of 10; (dose: 50.0 mg/kg/injection, schedule: Q01DX009 (ip), vehicle: saline with Tween-80) 9 of 10; (dose: 100.0 mg/kg/injection, schedule: Q01DX009 (ip), vehicle: saline with Tween-80) 0 of 10 and 9 of 10.

`COC(=O)C(N)Cc1ccc(O)c(O)c1` (stereo not given): the survivor count by setting is: (dose: 50.0 mg/kg/injection, schedule: Q08HX120 (ip), vehicle: saline) 6 of 6; (dose: 600.0 mg/kg/injection, schedule: Q01DX012 (ip), vehicle: saline) 6 of 10; (dose: 600.0 mg/kg/injection, schedule: Q01DX024 (ip), vehicle: saline) 5 of 10; under setting [10], 5 of 10; (dose: 800.0 mg/kg/injection, schedule: Q01DX024 (ip), vehicle: saline) 5 of 10; (dose: 1600.0 mg/kg/injection, schedule: Q01DX009 (ip), vehicle: saline) 1 of 10. In addition, the T/C under setting [10] was 127 % of control [9 of 10 alive].

For `CC1(C)CC(=O)C(CSC(=O)c2ccccc2)C(=O)C1`, the survivor count runs as follows: (dose: 25.0 mg/kg/injection, schedule: Q01DX009 (ip), vehicle: Klucel (hydroxypropylcellulose) (HPC)) 8 of 10 and 10 of 10; (dose: 50.0 mg/kg/injection, schedule: Q01DX009 (ip), vehicle: Klucel (hydroxypropylcellulose) (HPC)) 7 of 10 and 10 of 10; (dose: 100.0 mg/kg/injection, schedule: Q01DX009 (ip), vehicle: Klucel (hydroxypropylcellulose) (HPC)) 7 of 10.

For the origin of these results see PubChem BioAssay AID200 (DTP/NCI, 2004).
